Assay results taken from the supplement of paper PMC9744312.
Structures can show the parent of a compound that is named as a salt. Some of the results follow. Single values of this set are uncertain.

What follows are molecules tested on Peyronie's disease tunica albuginea primary fibroblasts (assay: inhibition of TGF-beta1-induced alpha-SMA expression (myofibroblast transformation), relative to TGF-beta1-only and untreated controls; higher = stronger inhibition of myofibroblast transformation). Details: 10 µM; TGF-beta1 10 ng/mL; 72 h.

| Compound | inhibition of TGF-beta1-induced alpha-SMA expression |
| --- | --- |
| Oc1cc(O)c(Cl)cn1 [Gimeracil] | 2.11% |
| COC(=O)C1=C(C)NC(C)=C(C(=O)OCC(C)C)C1c1ccccc1[N+](=O)[O-] (configuration not stated) [Nisoldipine] | 16.9% |
| CN(C)CCOC(c1ccc(Cl)cc1)c1ccccn1 (configuration not stated) [CarbinoxaMine Maleate] | 26.8% |
| O=C1CCc2ccc(OCCCCN3CCN(c4cccc(Cl)c4Cl)CC3)cc2N1 [Aripiprazole] | 49.3% |
| NCCCC(N)(C(=O)O)C(F)F (configuration not stated) [Eflornithine hydrochloride hydrate] | -0.902% |
| CNCc1cc(-c2ccccc2F)n(S(=O)(=O)c2cccnc2)c1 [Vonoprazan Fumarate (TAK-438)] | 29.3% |
| O=C1C(O)=C([C@H]2CC[C@H](c3ccc(Cl)cc3)CC2)C(=O)c2ccccc21 [Atovaquone] | 9.7% |
| Cc1ccccc1C(OCCN(C)C)c1ccccc1 (configuration not stated) [Orphenadrine Hydrochloride] | 17.9% |
| Cc1ccccc1C(OCCN(C)C)c1ccccc1 (configuration not stated) [Orphenadrine Citrate] | 12.3% |
| C=C(c1ccc(C(=O)O)cc1)c1cc2c(cc1C)C(C)(C)CCC2(C)C [Bexarotene] | -7.07% |
| CC(C)(C)NCC(O)c1cc(O)cc(O)c1 (configuration not stated) [Terbutaline Sulfate] | 14.9% |
| CCOC(=O)[N-]c1c[n+](N2CCOCC2)no1 [Molsidomine] | -29.7% |
| CC[N+](CC)(CC)CCOc1cccc(OCC[N+](CC)(CC)CC)c1OCC[N+](CC)(CC)CC [Gallamine Triethiodide] | 35.6% |
| NCc1ccc(S(N)(=O)=O)cc1 [Mafenide hydrochloride] | 11.8% |
| NCc1ccc(S(N)(=O)=O)cc1 [Mafenide Acetate] | -5.5% |
| CN[C@@H]1[C@H](O[C@H]2[C@H](O[C@H]3[C@H](O)[C@@H](O)[C@H](NC(=N)N)[C@@H](O)[C@@H]3NC(=N)N)O[C@@H](C)[C@]2(O)CO)O[C@@H](CO)[C@H](O)[C@H]1O [Dihydrostreptomycin sulfate] | 6.24% |
| CCN(CCCOc1ccc2c(Nc3cc(CC(=O)Nc4cccc(F)c4)[nH]n3)ncnc2c1)CCOP(=O)(O)O [Barasertib (AZD1152-HQPA)] | -100% |
| CC/C(=C(\c1ccccc1)c1ccc(OCCN(C)C)cc1)c1ccccc1 [Tamoxifen Citrate] | 71.7% |
| CC/C(=C(\c1ccccc1)c1ccc(OCCN(C)C)cc1)c1ccccc1 [Tamoxifen] | 8.93% |
| CCc1oc2ccccc2c1C(=O)c1cc(Br)c(O)c(Br)c1 [Benzbromarone] | -4.72% |
| COC(=O)[C@]12CCC(C)(C)C[C@H]1[C@H]1C(=O)C=C3[C@@]4(C)C=C(C#N)C(=O)C(C)(C)[C@@H]4CC[C@@]3(C)[C@]1(C)CC2 [Bardoxolone Methyl] | > 100% |
| CCCCC[C@H](O)/C=C/[C@H]1[C@H](O)CC(=O)[C@@H]1CCCCCCC(=O)O [Alprostadil] | 26% |
| O=C(O)c1ccccc1 [Benzoic Acid] | -19.6% |
| CC[C@@H]([C@H](C)O)n1ncn(-c2ccc(N3CCN(c4ccc(OC[C@@H]5CO[C@@](Cn6cncn6)(c6ccc(F)cc6F)C5)cc4)CC3)cc2)c1=O [Posaconazole] | 10.5% |

A portion from further up:

| Compound | inhibition of TGF-beta1-induced alpha-SMA expression |
| --- | --- |
| CC(C)(C)NCC(O)c1cc(O)cc(O)c1 (configuration not stated) [Terbutaline Sulfate] | 14.9% |
| CCOC(=O)[N-]c1c[n+](N2CCOCC2)no1 [Molsidomine] | -29.7% |

(further entries)

| Compound | inhibition of TGF-beta1-induced alpha-SMA expression |
| --- | --- |
| CN1CCC[C@@H]1CCO[C@](C)(c1ccccc1)c1ccc(Cl)cc1 [Clemastine Fumarate] | 80.2% |
| CCOc1ccc(NC(C)=O)cc1 [Phenacetin] | 49.3% |
| CC(C)[C@H](N)C(=O)OCC(CO)OCn1cnc2c(=O)[nH]c(N)nc21 (some centres not stated) [Valganciclovir HCl] | -1.22% |
| CC(C(=O)O)c1ccc(C(=O)c2cccs2)cc1 (configuration not stated) [Suprofen] | 29.7% |
| CN1CCN(c2nc(C3=C(c4c[nH]c5ccccc45)C(=O)NC3=O)c3ccccc3n2)CC1 [Sotrastaurin] | 23.9% |
| NCCCCC(NC(=O)C1CCCN1C(=O)C1CSSCC(N)C(=O)NC(Cc2ccc(O)cc2)C(=O)NC(Cc2ccccc2)C(=O)NC(CCC(N)=O)C(=O)NC(CC(N)=O)C(=O)N1)C(=O)NCC(N)=O (configuration not stated) [Lypressin Acetate] | > 100% |
| COc1cc2ncnc(Nc3ccc(F)c(Cl)c3)c2cc1OCCCN1CCOCC1 [Gefitinib hydrochloride] | 68.8% |
| COc1cc2ncnc(Nc3ccc(F)c(Cl)c3)c2cc1OCCCN1CCOCC1 [Gefitinib (ZD1839)] | -29.3% |
| COc1ccc(C(=O)c2ccccc2O)c(O)c1 [2,2′-Dihydroxy-4-methoxybenzophenone] | -19.6% |
| Nc1nc2[nH]cc(CCc3ccc(C(=O)N[C@@H](CCC(=O)O)C(=O)O)cc3)c2c(=O)[nH]1 [Pemetrexed Disodium Hydrate] | 22.5% |
| Nc1nc2[nH]cc(CCc3ccc(C(=O)N[C@@H](CCC(=O)O)C(=O)O)cc3)c2c(=O)[nH]1 [Pemetrexed] | 6.45% |
| COCCc1ccc(OCC(O)CNC(C)C)cc1 (configuration not stated) [Metoprolol] | -18.3% |
| COCCc1ccc(OCC(O)CNC(C)C)cc1 (configuration not stated) [Metoprolol Tartrate] | -10.7% |
| COCCc1ccc(OCC(O)CNC(C)C)cc1 (configuration not stated) [Metoprolol succinate] | 31.7% |
| CCN1CCN(Cc2ccc(Nc3ncc(F)c(-c4cc(F)c5nc(C)n(C(C)C)c5c4)n3)nc2)CC1 | 56.4% |
| CCN1CCN(Cc2ccc(Nc3ncc(F)c(-c4cc(F)c5nc(C)n(C(C)C)c5c4)n3)nc2)CC1 [Abemaciclib] | 47.5% |
| Nc1ccc(S(=O)(=O)Nc2cncc(Cl)n2)cc1 [Sulfalozine sodium] | > 100% |
| Cc1cc(N2CCN([C@@H]3CN[C@H](C(=O)N4CCSC4)C3)CC2)n(-c2ccccc2)n1 [Teneligliptin hydrobromide] | 19.4% |
| CC(C)Cc1ccc(C(C)C(=O)O)cc1 (configuration not stated) [Ibuprofen Lysine] | 46.3% |
| CC(C)Cc1ccc(C(C)C(=O)O)cc1 (configuration not stated) [Ibuprofen] | 29% |
| COc1ccc(CN2CCN(C(c3ccc(F)cc3)c3ccc(F)cc3)CC2)c(OC)c1OC [Lomerizine 2HCl] | -6.21% |
| Cc1cc(S(=O)(=O)O)c2c(C)ccc(C(C)C)cc1-2 [Sodium gualenate] | -13% |
| Cc1cnc(C(=O)O)c[n+]1[O-] [Acipimox] | 22.5% |
